Some of these results come from one statement about several compounds together. At least one compound was matched to its structure with a doubt left.
What follows are molecules tested on Venturia inaequalis (assay: Venturia test (apple)/protective). Details: active compound concentration 100 ppm, protective, evaluation 10 days after inoculation.
Format: in vivo
Molecule CC(=NOCCC(C)ON=C(C)c1ccc(C)c(C)n1)c1ccc(C)c(C)n1 (centres unmarked) [Compound 519] has an efficacy of at least 70%. With Cc1cccc(C(=NOCC(C)(C)CON=C(c2cccc(C)n2)C2CC2)C2CC2)n1 (mixture of isomers) [Compound 281] the efficacy was at least 70%. CC(=NOCCCCCCON=C(C)c1cccc(C)n1)c1cccc(C)n1 [Compound 73] showed an efficacy of at least 70%. Molecule CC(=NOCC(C)CON=C(C)c1cccc(C)n1)c1cccc(C)n1.[Cl][Cu][Cl] (centres unmarked) [Compound 70] has an efficacy of at least 70%. Work on CCC(=NOCC(C)(C)CON=C(CC)c1ccc(C)c(C)n1)c1ccc(C)c(C)n1 [Compound 280] yielded an efficacy of at least 70%. CCc1cccc(C(C)=NOCCCON=C(C)c2cccc(CC)n2)n1 [Compound 180] showed an efficacy of at least 70%. For CCC(=NOCC(C)(C)CON=C(C)c1cccc(C)n1)c1cccc(C)n1 [Compound 372], the efficacy was at least 70%. In the case of CC(=NOCC(C)CON=C(C)c1cccc(C)n1)c1cccc(C)n1.[Cl][Zn][Cl] (centres unmarked) [Compound 297], the efficacy is reported as at least 70%. CCc1cccc(C(C)=NOCC(C)(C)CON=C(C)c2cccc(C)n2)n1 [Compound 370] showed an efficacy of at least 70%. For C=C(CON=C(C)c1ccc(C)c(C)n1)CON=C(C)c1ccc(C)c(C)n1 [Compound 67], the efficacy was at least 70%. CC(=NOCC1(CON=C(C)c2ccc(C)c(C)n2)CC1)c1cc(C)cc(C)n1 [Compound 695] was tested, and the efficacy was at least 70%. For CC(=NOCC(C)CON=C(C)c1cccc(C)n1)c1cccc(C)n1.[Cl][Cu] (centres unmarked) [Compound 313], the efficacy was at least 70%. CC(=NOCC(C)(C)CON=C(C)c1cc(C)cc(C)n1)c1cc(C)cc(C)n1 [Compound 276] was tested, and the efficacy was at least 70%. For C=C(CON=C(C)c1cccc(C)n1)CON=C(C)c1ccc(C)c(C)n1 [Compound 204], the efficacy was at least 70%.

These molecules were tested on Botrytis cinerea (assay: Botrytis test (bean)/protective). Details: active compound concentration 250 ppm, protective, evaluation 2 days after inoculation.
Format: in vivo
CC(=NOCCC(C)ON=C(C)c1ccc(C)c(C)n1)c1ccc(C)c(C)n1 (centres unmarked) [Compound 519] gave an efficacy of at least 70%. CC(=NOCCCCCCON=C(C)c1cccc(C)n1)c1cccc(C)n1 [Compound 73] showed an efficacy of at least 70%. With CC(=NOCC(C)CON=C(C)c1cccc(C)n1)c1cccc(C)n1.[Cl][Cu][Cl] (centres unmarked) [Compound 70] the efficacy was at least 70%. Work on CCC(=NOCC(C)(C)CON=C(CC)c1ccc(C)c(C)n1)c1ccc(C)c(C)n1 [Compound 280] yielded an efficacy of at least 70%. CCC(=NOCC(C)(C)CON=C(C)c1cccc(C)n1)c1cccc(C)n1 [Compound 372] showed an efficacy of at least 70%. Molecule CC(=NOCC(C)CON=C(C)c1cccc(C)n1)c1cccc(C)n1.[Cl][Zn][Cl] (centres unmarked) [Compound 297] has an efficacy of at least 70%. Work on CCc1cccc(C(C)=NOCC(C)(C)CON=C(C)c2cccc(C)n2)n1 [Compound 370] yielded an efficacy of at least 70%. In the case of C=C(CON=C(C)c1ccc(C)c(C)n1)CON=C(C)c1ccc(C)c(C)n1 [Compound 67], the efficacy is reported as at least 70%. Work on CC(=NOCC1(CON=C(C)c2ccc(C)c(C)n2)CC1)c1cc(C)cc(C)n1 [Compound 695] yielded an efficacy of at least 70%. CC(=NOCC(C)CON=C(C)c1cccc(C)n1)c1cccc(C)n1.[Cl][Cu] (centres unmarked) [Compound 313] gave an efficacy of at least 70%.

The molecules below were run on Puccinia recondita (assay: Puccinia test (wheat)/protective). Details: active compound concentration 500 ppm, protective, evaluation 8-10 days after inoculation.
Format: in vivo
CCC(=NOCC(C)(C)CON=C(CC)c1ccc(C)c(C)n1)c1ccc(C)c(C)n1 [Compound 280] gave an efficacy of at least 70%. Work on CC(=NOCC1(CON=C(C)c2ccc(C)c(C)n2)CC1)c1cc(C)cc(C)n1 [Compound 695] yielded an efficacy of at least 70%. Work on CC(=NOCC(C)(C)CON=C(C)c1cc(C)cc(C)n1)c1cc(C)cc(C)n1 [Compound 276] yielded an efficacy of at least 70%.

What follows are molecules tested on Alternaria solani (assay: Alternaria test (tomato)/protective). Details: active compound concentration 500 ppm, protective, evaluation 7 days after inoculation.
Format: in vivo
In the case of CC(=NOCCC(C)ON=C(C)c1ccc(C)c(C)n1)c1ccc(C)c(C)n1 (centres unmarked) [Compound 519], the efficacy is reported as at least 70%. Work on Cc1cccc(C(=NOCC(C)(C)CON=C(c2cccc(C)n2)C2CC2)C2CC2)n1 (mixture of isomers) [Compound 281] yielded an efficacy of at least 70%. CC(=NOCCCCCCON=C(C)c1cccc(C)n1)c1cccc(C)n1 [Compound 73] showed an efficacy of at least 70%. Work on CC(=NOCC(C)CON=C(C)c1cccc(C)n1)c1cccc(C)n1.[Cl][Cu][Cl] (centres unmarked) [Compound 70] yielded an efficacy of at least 70%. CCC(=NOCC(C)(C)CON=C(CC)c1ccc(C)c(C)n1)c1ccc(C)c(C)n1 [Compound 280] showed an efficacy of at least 70%. In the case of CCc1cccc(C(C)=NOCCCON=C(C)c2cccc(CC)n2)n1 [Compound 180], the efficacy is reported as at least 70%. Molecule CCC(=NOCC(C)(C)CON=C(C)c1cccc(C)n1)c1cccc(C)n1 [Compound 372] has an efficacy of at least 70%. CC(=NOCC(C)CON=C(C)c1cccc(C)n1)c1cccc(C)n1.[Cl][Zn][Cl] (centres unmarked) [Compound 297] was tested, and the efficacy was at least 70%. Molecule CCc1cccc(C(C)=NOCC(C)(C)CON=C(C)c2cccc(C)n2)n1 [Compound 370] has an efficacy of at least 70%. For C=C(CON=C(C)c1ccc(C)c(C)n1)CON=C(C)c1ccc(C)c(C)n1 [Compound 67], the efficacy was at least 70%. Work on CC(=NOCC1(CON=C(C)c2ccc(C)c(C)n2)CC1)c1cc(C)cc(C)n1 [Compound 695] yielded an efficacy of at least 70%. In the case of CC(=NOCC(C)CON=C(C)c1cccc(C)n1)c1cccc(C)n1.[Cl][Cu] (centres unmarked) [Compound 313], the efficacy is reported as at least 70%. With CC(=NOCC(C)(C)CON=C(C)c1cc(C)cc(C)n1)c1cc(C)cc(C)n1 [Compound 276] the efficacy was at least 70%. For C=C(CON=C(C)c1cccc(C)n1)CON=C(C)c1ccc(C)c(C)n1 [Compound 204], the efficacy was at least 70%.

Each molecule was assayed on Sphaerotheca fuliginea (assay: Sphaerotheca test (cucumber)/protective). Details: active compound concentration 500 ppm, protective, evaluation 7 days after inoculation.
Format: in vivo
For CC(=NOCCC(C)ON=C(C)c1ccc(C)c(C)n1)c1ccc(C)c(C)n1 (centres unmarked) [Compound 519], the efficacy was at least 70%. CC(=NOCCCCCCON=C(C)c1cccc(C)n1)c1cccc(C)n1 [Compound 73] was tested, and the efficacy was at least 70%. In the case of CCC(=NOCC(C)(C)CON=C(CC)c1ccc(C)c(C)n1)c1ccc(C)c(C)n1 [Compound 280], the efficacy is reported as at least 70%. In the case of CCc1cccc(C(C)=NOCCCON=C(C)c2cccc(CC)n2)n1 [Compound 180], the efficacy is reported as at least 70%. CCC(=NOCC(C)(C)CON=C(C)c1cccc(C)n1)c1cccc(C)n1 [Compound 372] was tested, and the efficacy was at least 70%. With CCc1cccc(C(C)=NOCC(C)(C)CON=C(C)c2cccc(C)n2)n1 [Compound 370] the efficacy was at least 70%. Molecule CC(=NOCC1(CON=C(C)c2ccc(C)c(C)n2)CC1)c1cc(C)cc(C)n1 [Compound 695] has an efficacy of at least 70%. CC(=NOCC(C)(C)CON=C(C)c1cc(C)cc(C)n1)c1cc(C)cc(C)n1 [Compound 276] was tested, and the efficacy was at least 70%.

These molecules were tested on Pyrenophora teres (assay: Pyrenophora teres test (barley)/protective). Details: active compound concentration 1000 ppm, protective, evaluation 8 days after inoculation.
Format: in vivo
CC(=NOCCC(C)ON=C(C)c1ccc(C)c(C)n1)c1ccc(C)c(C)n1 (centres unmarked) [Compound 519] showed an efficacy of at least 70%. In the case of Cc1cccc(C(=NOCC(C)(C)CON=C(c2cccc(C)n2)C2CC2)C2CC2)n1 (mixture of isomers) [Compound 281], the efficacy is reported as at least 70%. CC(=NOCCCCCCON=C(C)c1cccc(C)n1)c1cccc(C)n1 [Compound 73] was tested, and the efficacy was at least 70%. Work on CC(=NOCC(C)CON=C(C)c1cccc(C)n1)c1cccc(C)n1.[Cl][Cu][Cl] (centres unmarked) [Compound 70] yielded an efficacy of at least 70%. With CCc1cccc(C(C)=NOCCCON=C(C)c2cccc(CC)n2)n1 [Compound 180] the efficacy was at least 70%. In the case of CCC(=NOCC(C)(C)CON=C(C)c1cccc(C)n1)c1cccc(C)n1 [Compound 372], the efficacy is reported as at least 70%. Work on CC(=NOCC(C)CON=C(C)c1cccc(C)n1)c1cccc(C)n1.[Cl][Zn][Cl] (centres unmarked) [Compound 297] yielded an efficacy of at least 70%. Work on CCc1cccc(C(C)=NOCC(C)(C)CON=C(C)c2cccc(C)n2)n1 [Compound 370] yielded an efficacy of at least 70%. In the case of C=C(CON=C(C)c1ccc(C)c(C)n1)CON=C(C)c1ccc(C)c(C)n1 [Compound 67], the efficacy is reported as at least 70%. CC(=NOCC(C)(C)CON=C(C)c1cc(C)cc(C)n1)c1cc(C)cc(C)n1 [Compound 276] was tested, and the efficacy was at least 70%. Work on C=C(CON=C(C)c1cccc(C)n1)CON=C(C)c1ccc(C)c(C)n1 [Compound 204] yielded an efficacy of at least 70%.

Each molecule was assayed on Leptosphaeria nodorum (assay: Leptosphaeria nodorum test (wheat)/protective). Details: active compound concentration 1000 ppm, protective, evaluation 10 days after inoculation.
Format: in vivo
With CC(=NOCCC(C)ON=C(C)c1ccc(C)c(C)n1)c1ccc(C)c(C)n1 (centres unmarked) [Compound 519] the efficacy was at least 70%. In the case of Cc1cccc(C(=NOCC(C)(C)CON=C(c2cccc(C)n2)C2CC2)C2CC2)n1 (mixture of isomers) [Compound 281], the efficacy is reported as at least 70%. In the case of CC(=NOCCCCCCON=C(C)c1cccc(C)n1)c1cccc(C)n1 [Compound 73], the efficacy is reported as at least 70%. Molecule CC(=NOCC(C)CON=C(C)c1cccc(C)n1)c1cccc(C)n1.[Cl][Cu][Cl] (centres unmarked) [Compound 70] has an efficacy of at least 70%. CCC(=NOCC(C)(C)CON=C(CC)c1ccc(C)c(C)n1)c1ccc(C)c(C)n1 [Compound 280] gave an efficacy of at least 70%. CCc1cccc(C(C)=NOCCCON=C(C)c2cccc(CC)n2)n1 [Compound 180] showed an efficacy of at least 70%. Molecule CCC(=NOCC(C)(C)CON=C(C)c1cccc(C)n1)c1cccc(C)n1 [Compound 372] has an efficacy of at least 70%. CC(=NOCC(C)CON=C(C)c1cccc(C)n1)c1cccc(C)n1.[Cl][Zn][Cl] (centres unmarked) [Compound 297] was tested, and the efficacy was at least 70%. Molecule CCc1cccc(C(C)=NOCC(C)(C)CON=C(C)c2cccc(C)n2)n1 [Compound 370] has an efficacy of at least 70%. C=C(CON=C(C)c1ccc(C)c(C)n1)CON=C(C)c1ccc(C)c(C)n1 [Compound 67] gave an efficacy of at least 70%. For CC(=NOCC1(CON=C(C)c2ccc(C)c(C)n2)CC1)c1cc(C)cc(C)n1 [Compound 695], the efficacy was at least 70%. CC(=NOCC(C)CON=C(C)c1cccc(C)n1)c1cccc(C)n1.[Cl][Cu] (centres unmarked) [Compound 313] was tested, and the efficacy was at least 70%. In the case of CC(=NOCC(C)(C)CON=C(C)c1cc(C)cc(C)n1)c1cc(C)cc(C)n1 [Compound 276], the efficacy is reported as at least 70%. With C=C(CON=C(C)c1cccc(C)n1)CON=C(C)c1ccc(C)c(C)n1 [Compound 204] the efficacy was at least 70%.

Source: patent US20100022559A1, “BISOXIMES AS FUNGICIDES” (BAYER CROPSCIENCE AG, priority 2006, published 2010)
